The target in experiment [1] is T1, Ski (human (endogenous in MDA-MB-231)) (UniProt P12755).
T1 sequence: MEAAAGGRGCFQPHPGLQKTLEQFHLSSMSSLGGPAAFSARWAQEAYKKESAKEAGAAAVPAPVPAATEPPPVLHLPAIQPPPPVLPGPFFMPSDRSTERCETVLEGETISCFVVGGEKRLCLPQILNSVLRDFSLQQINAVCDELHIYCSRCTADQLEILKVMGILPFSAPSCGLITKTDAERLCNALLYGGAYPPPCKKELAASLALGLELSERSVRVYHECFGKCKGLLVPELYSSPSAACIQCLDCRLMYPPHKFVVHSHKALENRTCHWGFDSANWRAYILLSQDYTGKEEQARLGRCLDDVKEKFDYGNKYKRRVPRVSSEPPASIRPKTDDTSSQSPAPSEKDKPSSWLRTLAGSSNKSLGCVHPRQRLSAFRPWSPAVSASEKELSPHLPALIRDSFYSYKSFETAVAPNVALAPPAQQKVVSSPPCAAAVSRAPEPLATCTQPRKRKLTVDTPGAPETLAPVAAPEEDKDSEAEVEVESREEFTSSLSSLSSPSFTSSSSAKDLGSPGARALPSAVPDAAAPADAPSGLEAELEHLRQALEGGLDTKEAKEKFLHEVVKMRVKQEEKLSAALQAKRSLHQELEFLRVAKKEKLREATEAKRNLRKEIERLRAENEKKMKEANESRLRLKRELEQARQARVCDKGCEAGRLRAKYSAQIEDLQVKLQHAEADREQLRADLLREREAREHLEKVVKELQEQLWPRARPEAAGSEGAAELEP
As to the kind of experiment: co-IP; endogenous proteins; MDA-MB-231 cells preincubated 3 h with 50 uM MG132, induced or not with 2 ng/ml TGF-beta for 1 h; lysed in 150 mM co-IP buffer; IP with antibodies against Smad4, SNW1 or Ski, beads alone as negative control; Western blot.

Sequences of proteins named here, by UniProt entry; tags and fusion partners are left off.
UniProt P84022: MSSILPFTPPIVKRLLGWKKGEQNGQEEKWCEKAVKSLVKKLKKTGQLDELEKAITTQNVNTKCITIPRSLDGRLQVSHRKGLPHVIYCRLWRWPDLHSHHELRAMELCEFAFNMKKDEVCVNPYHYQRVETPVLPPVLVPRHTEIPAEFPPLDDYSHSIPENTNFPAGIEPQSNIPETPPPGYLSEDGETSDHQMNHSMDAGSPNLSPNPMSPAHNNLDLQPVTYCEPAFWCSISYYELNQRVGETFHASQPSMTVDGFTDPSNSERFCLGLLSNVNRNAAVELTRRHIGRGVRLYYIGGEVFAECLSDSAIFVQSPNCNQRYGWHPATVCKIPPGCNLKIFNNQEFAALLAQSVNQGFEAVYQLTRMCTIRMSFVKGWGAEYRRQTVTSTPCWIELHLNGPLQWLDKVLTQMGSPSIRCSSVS
UniProt Q13485: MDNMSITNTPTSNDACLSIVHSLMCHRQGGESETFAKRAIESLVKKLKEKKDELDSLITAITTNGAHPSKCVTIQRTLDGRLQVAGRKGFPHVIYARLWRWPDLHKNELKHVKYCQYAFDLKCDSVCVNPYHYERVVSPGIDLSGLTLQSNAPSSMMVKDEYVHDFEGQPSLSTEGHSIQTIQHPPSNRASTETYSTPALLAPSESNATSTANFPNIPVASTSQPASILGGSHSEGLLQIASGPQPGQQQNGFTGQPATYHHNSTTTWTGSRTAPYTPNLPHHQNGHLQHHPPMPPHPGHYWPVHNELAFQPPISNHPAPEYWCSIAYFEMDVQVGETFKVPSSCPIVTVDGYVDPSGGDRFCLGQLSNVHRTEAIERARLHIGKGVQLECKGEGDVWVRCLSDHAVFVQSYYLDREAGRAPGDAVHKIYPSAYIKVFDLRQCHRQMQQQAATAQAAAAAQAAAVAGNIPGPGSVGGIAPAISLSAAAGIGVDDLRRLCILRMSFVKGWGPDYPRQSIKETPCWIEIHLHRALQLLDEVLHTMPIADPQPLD

Experiment [2] deals with T2, SNW1 (human (endogenous in MDA-MB-231)) (UniProt Q13573).
T2 sequence: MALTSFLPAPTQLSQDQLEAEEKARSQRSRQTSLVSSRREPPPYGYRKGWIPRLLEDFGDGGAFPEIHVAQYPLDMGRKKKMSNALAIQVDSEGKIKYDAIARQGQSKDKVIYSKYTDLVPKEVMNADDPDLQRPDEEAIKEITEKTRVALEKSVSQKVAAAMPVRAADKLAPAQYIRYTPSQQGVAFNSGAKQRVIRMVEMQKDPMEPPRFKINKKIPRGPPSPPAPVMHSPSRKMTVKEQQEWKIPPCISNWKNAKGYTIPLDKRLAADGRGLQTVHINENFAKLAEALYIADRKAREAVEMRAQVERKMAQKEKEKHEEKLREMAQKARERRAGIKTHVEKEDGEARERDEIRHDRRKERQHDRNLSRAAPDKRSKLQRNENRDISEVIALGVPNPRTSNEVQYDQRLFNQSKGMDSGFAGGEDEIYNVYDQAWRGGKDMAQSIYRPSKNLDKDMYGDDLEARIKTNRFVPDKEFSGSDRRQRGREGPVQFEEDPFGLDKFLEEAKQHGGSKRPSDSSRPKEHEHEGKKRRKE
The experiment is described as above.

Results are given in words; binding and its absence hold for the method and conditions named. In cells and extracts the contact can be indirect. Some entries that bind do so weakly or less than the wild type.

For the substance Smad3 (from UniProt P84022 1-425), the binding result in experiment [1] was “binds”.

Smad4 (from UniProt Q13485 1-552): the binding entry in experiment [1] is reported as “binds”; in experiment [2], “no binding”.

The values are drawn from publication PMC3039673.
